Results reported in patent publication US20190300589A1.
No constants are given. Whether binding was seen depends on the method and setting. Some entries that bind do so weakly or less than the wild type. Each block holds one binder with its values, some of them ahead of it.

Tests used:
[1] = target: C5 (complement component C5), P01031; test: ELISA, FHR1 immobilised, C5 in solution; conditions: remark: other sources report otherwise
[2] = target: T1, human plasma derived Factor H (hFH) (human), P08603; test: size exclusion chromatography (Superdex 200 10/300 GL), self-association; conditions: remark: other sources report otherwise
T1 chain: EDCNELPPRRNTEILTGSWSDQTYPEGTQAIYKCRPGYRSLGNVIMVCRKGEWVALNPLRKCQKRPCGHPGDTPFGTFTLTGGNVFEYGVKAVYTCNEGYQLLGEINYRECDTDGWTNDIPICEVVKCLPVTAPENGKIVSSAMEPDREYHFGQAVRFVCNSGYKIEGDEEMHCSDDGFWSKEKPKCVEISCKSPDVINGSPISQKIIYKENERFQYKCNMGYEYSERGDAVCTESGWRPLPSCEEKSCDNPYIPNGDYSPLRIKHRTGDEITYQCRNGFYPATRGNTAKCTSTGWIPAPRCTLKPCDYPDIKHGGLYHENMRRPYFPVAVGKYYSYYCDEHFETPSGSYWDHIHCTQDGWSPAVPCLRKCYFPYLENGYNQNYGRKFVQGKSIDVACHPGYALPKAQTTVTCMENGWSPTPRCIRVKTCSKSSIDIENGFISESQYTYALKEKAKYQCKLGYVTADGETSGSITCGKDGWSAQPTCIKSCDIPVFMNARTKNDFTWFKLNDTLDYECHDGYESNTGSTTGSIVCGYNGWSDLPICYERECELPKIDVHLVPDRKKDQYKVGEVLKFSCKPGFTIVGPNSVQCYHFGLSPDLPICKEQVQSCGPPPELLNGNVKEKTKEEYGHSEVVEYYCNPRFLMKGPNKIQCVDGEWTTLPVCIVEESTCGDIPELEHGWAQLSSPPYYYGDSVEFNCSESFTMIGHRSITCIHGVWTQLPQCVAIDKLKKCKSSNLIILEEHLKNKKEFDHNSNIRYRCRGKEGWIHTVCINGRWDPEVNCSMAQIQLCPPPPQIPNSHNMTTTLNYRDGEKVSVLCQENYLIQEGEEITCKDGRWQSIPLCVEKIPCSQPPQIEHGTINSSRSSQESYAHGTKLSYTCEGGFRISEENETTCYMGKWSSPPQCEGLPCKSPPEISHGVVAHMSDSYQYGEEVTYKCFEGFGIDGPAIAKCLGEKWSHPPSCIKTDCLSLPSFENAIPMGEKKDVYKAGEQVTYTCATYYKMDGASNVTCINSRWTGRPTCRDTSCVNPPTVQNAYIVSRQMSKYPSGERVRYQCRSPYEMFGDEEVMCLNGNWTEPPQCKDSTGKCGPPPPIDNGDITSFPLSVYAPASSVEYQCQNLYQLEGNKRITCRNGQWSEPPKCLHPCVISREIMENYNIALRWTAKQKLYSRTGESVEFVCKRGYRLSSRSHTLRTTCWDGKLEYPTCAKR

binding [1]: binds
B1: full length FHR1 (Factor H-related protein 1), Q03591 19-330 (protein)
chain: EATFCDFPKINHGILYDEEKYKPFSQVPTGEVFYYSCEYNFVSPSKSFWTRITCTEEGWSPTPKCLRLCFFPFVENGHSESSGQTHLEGDTVQIICNTGYRLQNNENNISCVERGWSTPPKCRSTDTSCVNPPTVQNAHILSRQMSKYPSGERVRYECRSPYEMFGDEEVMCLNGNWTEPPQCKDSTGKCGPPPPIDNGDITSFPLSVYAPASSVEYQCQNLYQLEGNKRITCRNGQWSEPPKCLHPCVISREIMENYNIALRWTAKQKLYLRTGESAEFVCKRGYRLSSRSHTLRTTCWDGKLEYPTCAKR

binding [2]: binds
B2: human plasma derived Factor H (hFH), P08603 19-1231 (protein)
chain: T1 chain
